Consider 3 substances from PMC4910015.

By UniProt entry, the sequences of proteins in these tests, tags left out. Where a name states a change or a piece, a line headed by the entry shows the natural chain unless it says otherwise. Chains listed by the source or under a name are the forms on record and can include a tag or linker.
UniProt Q03135: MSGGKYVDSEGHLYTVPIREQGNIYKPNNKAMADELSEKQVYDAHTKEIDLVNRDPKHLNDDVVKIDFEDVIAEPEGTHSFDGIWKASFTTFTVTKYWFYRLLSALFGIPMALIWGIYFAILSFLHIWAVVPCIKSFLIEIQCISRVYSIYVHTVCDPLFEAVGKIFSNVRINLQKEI
UniProt P61586: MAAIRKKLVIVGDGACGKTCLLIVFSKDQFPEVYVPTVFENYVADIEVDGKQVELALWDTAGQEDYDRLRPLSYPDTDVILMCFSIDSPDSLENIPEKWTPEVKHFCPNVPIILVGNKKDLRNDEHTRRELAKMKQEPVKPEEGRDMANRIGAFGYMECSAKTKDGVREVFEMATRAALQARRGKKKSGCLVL
HA-RhoA V14 (constitutively active form) (P61586, form named): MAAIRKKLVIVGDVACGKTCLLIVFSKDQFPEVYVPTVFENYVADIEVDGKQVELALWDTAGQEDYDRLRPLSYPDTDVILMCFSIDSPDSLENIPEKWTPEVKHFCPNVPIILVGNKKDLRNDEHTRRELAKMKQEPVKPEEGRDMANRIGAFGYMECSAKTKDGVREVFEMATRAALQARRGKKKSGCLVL
RhoA N19 (dominant negative form) (P61586, form named): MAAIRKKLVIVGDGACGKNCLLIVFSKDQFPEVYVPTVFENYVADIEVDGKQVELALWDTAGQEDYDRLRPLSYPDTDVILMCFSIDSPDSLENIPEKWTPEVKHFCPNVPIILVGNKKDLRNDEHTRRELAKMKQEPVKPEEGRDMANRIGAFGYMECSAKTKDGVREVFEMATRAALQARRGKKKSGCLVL
UniProt P63096: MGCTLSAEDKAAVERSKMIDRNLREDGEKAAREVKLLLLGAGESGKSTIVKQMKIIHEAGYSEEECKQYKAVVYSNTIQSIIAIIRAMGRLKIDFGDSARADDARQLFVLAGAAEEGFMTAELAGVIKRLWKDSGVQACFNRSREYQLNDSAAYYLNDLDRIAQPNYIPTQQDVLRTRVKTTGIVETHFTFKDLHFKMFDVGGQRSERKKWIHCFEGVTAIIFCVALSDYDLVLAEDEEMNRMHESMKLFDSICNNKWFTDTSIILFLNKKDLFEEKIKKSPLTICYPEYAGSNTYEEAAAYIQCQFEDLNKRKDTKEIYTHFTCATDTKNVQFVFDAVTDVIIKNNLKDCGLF

No constants are given. Whether binding was seen depends on the method and setting. Binding seen in cells or lysates may run through a third protein. Some results given as binding are weak or reduced against the parent protein; the word gives no strength.

This assay addresses GFP-tagged caveolin-1 (human) (UniProt Q03135). Kind of assay: co-IP; GFP-caveolin-1 immunoprecipitated with anti-GFP antibody-conjugated beads from total lysates (buffer A: 50 mM Hepes pH 7.4, 50 mM NaCl, 0.5% NP-40), 3 h, washed three times with buffer B; western blot with anti-RhoA, anti-Gαi1, anti-GFP; cells mitotically arrested (10 μM STLC) or synchronized by release from a double thymidine block.
Take “HA-RhoA V14 (constitutively active form) (from UniProt P61586 1-193)”: the binding result is “binds”.
With “RhoA N19 (dominant negative form) (from UniProt P61586 1-193)” the entry was “binds weakly”.
As to “endogenous Gαi1 (from UniProt P63096 1-354)”, the binding result is “binds”.
